{"source": "PubChem BioAssay AID588499", "about": "(NMMLSC, 2011)", "note": "The whole screen tested about 360,000 compounds, of which about 610 (0.17%) were called active. Inconclusive results, whose numbers are uncertain, are shown with a selection of clear calls. No stated cut-off is given here; in the data, active means inhibition above about 30%; inconclusive means no clear call, values can overlap the other calls; inactive means below that."}
{"system": "Botulinum neurotoxin type A light chain protease (Clostridium botulinum A str. ATCC 3502)", "assay": "blockers of BoNT/A LC substrate cleavage – biochemical, flow cytometry, MLPCN library, primary screen (AID 588499); further: plate controls were buffer without enzyme for full effect and enzyme alone for no effect", "conditions": "multiplex microsphere protease substrate cleavage, at 10 µM, active compounds read high"}
{"compound": "CC(=O)C1=C(c2ccccc2)NC(=O)NC1c1cccs1", "note": "(stereo not drawn)", "inhibition": "inactive: -0.4%"}
{"compound": "COc1ccc(S(=O)(=O)N2CCN(C(=O)c3ccc(=O)[nH]n3)CC2)cc1OC", "inhibition": "inactive: -2.9%"}
{"compound": "CCOc1cc(CN2CCc3c([nH]c4ccccc34)C2)ccc1OC", "inhibition": "inactive: 1.6%"}
{"compound": "COC(=O)CSc1nnc(-c2ccc(OC)cc2OC)o1", "inhibition": "inconclusive: -0.8%"}
{"compound": "CCCNC(=S)Nc1ccc2nc(-c3ccccn3)c(-c3ccccn3)nc2c1", "inhibition": "inconclusive: 2.6%"}
{"compound": "O=C1NC(=O)/C(=C/c2ccc(N3CCOCC3)o2)N1", "inhibition": "inconclusive: 13.8%"}
{"compound": "CCc1cccc(C)c1NC(=S)NCc1ccc2c(c1)cc(C)n2C", "inhibition": "active: 56.7%"}
{"compound": "CC1CCC2(CC1)N=C(N)Nc1nc3ccccc3n12", "note": "(stereo not drawn)", "inhibition": "inconclusive: -3.5%"}
{"compound": "c1ccc(-c2nnc(CSc3nc4ccccc4[nH]3)o2)cc1", "inhibition": "inconclusive: 4.9%"}
{"compound": "Cc1nc2cc(-c3cccc(F)c3)nn2c(C)c1CCC(=O)N1CCC2(CC1)OCCO2", "inhibition": "inconclusive: 2.8%"}
{"compound": "Cc1ccc(SCC(=O)OCC(=O)NC2CCCCCCC2)cc1", "inhibition": "inconclusive: -7.4%"}
{"compound": "O=C1C(Br)=Cc2cccc3cccc1c23", "inhibition": "active: 59%"}
{"compound": "COC(=O)c1ccc(C(=O)OC)c(NC(=O)Oc2ccccc2)c1", "inhibition": "inactive: 0.7%"}
{"compound": "Cc1cc(SCC(=O)Nc2ccccc2)n2ncc(-c3ccccc3)c2n1", "inhibition": "inconclusive: -35.4%"}
{"compound": "Cc1noc(C)c1NC(=O)NCCN1CCN(Cc2ccccc2)CC1", "inhibition": "inconclusive: 2.5%"}
{"compound": "O=C(Nc1nccs1)c1cc2sccc2n1Cc1ccc(F)cc1", "inhibition": "inconclusive: -0.6%"}
{"compound": "COCCn1c(=S)[nH]c2cc(C(=O)N3CCN(c4ccccc4OC)CC3)ccc2c1=O", "inhibition": "inconclusive: -6.3%"}
{"compound": "COc1cc(SC)ccc1C(=O)NCC1CCCCC1", "inhibition": "inactive: -4.2%"}
{"compound": "O=C(c1ccco1)N1CCN(S(=O)(=O)c2cccc(C(F)(F)F)c2)CC1", "inhibition": "inconclusive: 8.6%"}
{"compound": "COC(=O)c1ccc(-c2nc(CN3CCC(C(=O)N4CCOCC4)CC3)c(C)o2)cc1", "inhibition": "inactive: 2.6%"}
{"compound": "Cc1cc(C)n(NC(=S)NC2CCCCC2)c(=O)c1C#N", "inhibition": "inconclusive: -0.6%"}
{"compound": "O=C1/C(=C/c2ccccn2)SC(=S)N1CCc1ccccc1", "inhibition": "inconclusive: 0.2%"}
{"compound": "Cn1cc(C2N3CC4(C)CN2CC(C)(C3)C4=O)c2ccccc21", "note": "(stereo not drawn)", "inhibition": "inactive: -1.2%"}
{"compound": "COC(=O)c1ccc(COC(=O)c2ccc(-n3cnnn3)cc2)o1", "inhibition": "inconclusive: -0.2%"}
{"compound": "COc1ccc(NC(=O)CN2CCN(C(=S)NC3CCCC3)CC2)cc1", "inhibition": "inconclusive: -34.9%"}
{"compound": "Cc1nc(-c2cc(C#N)c(Sc3ccc(Cl)cc3Cl)nc2C)cs1", "inhibition": "inconclusive: -59.9%"}
{"compound": "O=C(Nc1ccccc1C(F)(F)F)N1CCN(C(c2ccccc2)c2ccccc2)CC1", "inhibition": "inconclusive: -8%"}
{"compound": "O=C1CC(c2ccccc2)n2ncnc2N1", "note": "(stereo not drawn)", "inhibition": "inconclusive: -3.4%"}
{"compound": "COc1cc(OC)cc(C(=O)N2CCN(Cc3cccc(F)c3)CC2)c1", "inhibition": "inconclusive: -6.4%"}
{"compound": "CCN(CC)C(=O)C1CCN(Cc2ccc(OCc3ccccc3)c(OC)c2)CC1", "inhibition": "inconclusive: -3.7%"}
{"compound": "Cc1c(C(=O)Nc2nccs2)sc2nc(-c3cccs3)cc(C(F)(F)F)c12", "inhibition": "active: 39.1%"}
{"compound": "CCc1c(C)nc2ncnn2c1N1CCC(C(=O)N2CCN(c3ccc(F)cc3)CC2)CC1", "inhibition": "inconclusive: -4.6%"}
{"compound": "CCc1ccc2oc(-c3cccc(N)c3)nc2c1", "inhibition": "inactive: 0%"}
{"compound": "Cc1cccc(C(=O)Nc2ncc(CN3CCOCC3)s2)c1", "inhibition": "inconclusive: -3.1%"}
{"compound": "CCC1(C)Cc2ccccc2-c2nc3n(c(=O)c21)CC(C(=O)O)S3", "note": "(stereo not drawn)", "inhibition": "inactive: -2.7%"}
{"compound": "Cc1ccc(CNCCC2=CCCCC2)cc1", "inhibition": "inconclusive: -3%"}
{"compound": "O=P(c1ccccc1)(c1nc2ccccc2s1)N1CCOCC1", "note": "(stereo not drawn)", "inhibition": "inconclusive: 1.9%"}
{"compound": "Cc1ccc(-c2nn(C)c(=O)c3ccccc23)cc1CN1CCCCC1", "inhibition": "inconclusive: 5.4%"}
{"compound": "CCNC(=O)NCCc1c[nH]c2ccc(Cl)cc12", "inhibition": "inconclusive: -3.4%"}
{"compound": "CCOc1ccccc1N1CCN(Cc2ccc(OC)c(OC)c2OC)CC1", "inhibition": "inconclusive: 4%"}
{"compound": "CCN1C(=O)[C@H]2[C@@H](c3ccc(Cl)cc3)N3C(=O)CN(CC4CC4)C(=O)[C@@]3(Cc3ccccc3)[C@H]2C1=O", "inhibition": "inactive: 0.5%"}
{"compound": "Cc1cc(C)cc(-n2nc(C)cc2N)c1", "inhibition": "inconclusive: -3.2%"}
{"compound": "CCOC(=O)c1ccc(NC(=S)NCCCN2CCN(C3CCCCC3)CC2)cc1", "inhibition": "inactive: -1.4%"}
{"compound": "CC(=O)Oc1ccc(C(=O)Nc2ccc3c(c2)C(=O)N(CCC(=O)O)C3=O)cc1", "inhibition": "inactive: 0.4%"}
{"compound": "Cc1ccc(S(=O)(=O)NCCN=C(CN2CCCC2)NS(=O)(=O)c2ccc(C)cc2)cc1", "inhibition": "inconclusive: -5.7%"}
{"compound": "O=C(CCNC(=O)c1ccc(Br)o1)NCc1ccc(Cl)cc1", "inhibition": "inactive: -1.3%"}
{"compound": "CNC(=O)CSc1nc2cccnc2n1C1CCCCC1", "inhibition": "inconclusive: 0%"}
{"compound": "Cc1ccnc(NC(=O)CCC(=O)N(CC(=O)NC2CCCCC2)Cc2ccccc2)c1", "inhibition": "inactive: 0.3%"}
{"compound": "COc1cccc(NC(=O)c2c(C)cc(C)cc2CC(C)(C)C(=O)O)c1", "inhibition": "inconclusive: -1.8%"}
{"compound": "O=C(C[n+]1cc(-c2ccc(Cl)cc2)n2c1CCC2)Nc1nc(-c2ccccc2)cs1", "inhibition": "inconclusive: 9.7%"}
{"compound": "CC(=O)c1c(N2CCN(C)CC2)[nH]c(-c2ccccc2)nc1=S", "inhibition": "inconclusive: 2.9%"}
{"compound": "CCn1nc(C)c([N+](=O)[O-])c1C(=O)NNC(=O)c1ccccc1Cl", "inhibition": "inconclusive: 0.9%"}
{"compound": "O=C(NNc1ccc(Cl)cc1)c1sccc1Cl", "inhibition": "inconclusive: -52.9%"}
{"compound": "COc1ccc(C(=O)COC(=O)c2c(-c3ccccc3)noc2C)c(OC)c1", "inhibition": "inactive: 1.8%"}
{"compound": "O=[N+]([O-])c1ccc(SCCO)nc1SCCO", "inhibition": "inconclusive: -4.2%"}
{"compound": "CCOc1ccccc1C(=O)NCCc1cnc[nH]1", "inhibition": "inactive: -3.7%"}
{"compound": "Cc1[nH]c2ccccc2c1/C=C(\\C#N)C(=O)NCc1ccccc1", "inhibition": "active: 52.8%"}
{"compound": "Cc1ccccc1NC(=O)Nc1ccc(C(F)(F)F)cc1", "inhibition": "inactive: 0.2%"}
{"compound": "Cc1nc(S(=O)(=O)Nc2ccccc2C(=O)NCC2CC2)cn1C", "inhibition": "inconclusive: -6.5%"}
{"compound": "CCOC(=O)CN1C(=O)C(C)(C)Oc2ccc(C(=O)NC(C)(C)CC)cc21", "inhibition": "inconclusive: 1.1%"}
{"compound": "COC(=O)c1cc(=O)n(C2CC2)c(=NC2CC2)s1", "inhibition": "inconclusive: 0.5%"}
{"compound": "O=C(COC(=O)CCN1C(=O)/C(=C\\C=C\\c2ccccc2)SC1=S)Nc1ccc(Br)cc1", "inhibition": "active: 41.3%"}
{"compound": "c1ccc(-c2cn3nc(-c4ccccc4)c(-c4ccccc4)nc3n2)cc1", "inhibition": "active: 75.8%"}
{"compound": "O=C(NCc1ccccc1)C1CC2CCCC(C1)C2=O", "note": "(stereo not drawn)", "inhibition": "inconclusive: 17.1%"}
{"compound": "NC(=O)c1cc2c(s1)-c1cc(Cl)ccc1SC2", "inhibition": "inconclusive: -0.1%"}
{"compound": "O=C(N(Cc1ccccc1)c1ccccn1)C12CC3CC(CC(C3)C1)C2", "inhibition": "inconclusive: 24.7%"}
{"compound": "CN1C(=CC=C2C=C(I)C(=O)C(I)=C2)C(C)(C)c2ccccc21", "inhibition": "active: 101%"}
{"compound": "CCOc1ccc(C(=O)Nc2ncccc2Cl)cc1", "inhibition": "inactive: 0.1%"}
{"compound": "CCOP(=O)(OCC)c1nc(-c2ccc(Cl)cc2)oc1NCc1ccccc1", "inhibition": "inactive: 0%"}
{"compound": "CCC(=O)c1ccc(OCc2ccc(C(=O)OC)cc2)cc1", "inhibition": "inactive: -0.3%"}
{"compound": "COc1ccc(S(=O)(=O)Nc2cc(C)on2)cc1", "inhibition": "inactive: -3.9%"}
{"compound": "CCOc1cc(Cl)c(S(=O)(=O)NCc2cccnc2)cc1Cl", "inhibition": "inactive: 1.2%"}
{"compound": "Cc1c(CCC(=O)NCC(=O)NCC(=O)O)c(=O)oc2cc3oc4c(c3cc12)CCCC4", "inhibition": "inactive: 1.3%"}
{"compound": "Cc1cc(S(=O)(=O)NC2CCCCC2)ccc1OCC(=O)NCc1cccnc1", "inhibition": "inconclusive: 3.7%"}
{"compound": "COc1ccc(CN2CCN(S(=O)(=O)c3ccccc3)CC2)c(OC)c1OC", "inhibition": "inconclusive: 3.2%"}
{"compound": "Cn1ccc2c(-c3cncc4ccccc34)cc3c(c21)C1CCC3C1", "note": "(stereo not drawn)", "inhibition": "active: 47.6%"}
{"compound": "O=C(Nc1ccccc1C(F)(F)F)NC1CCCCC1", "inhibition": "inconclusive: 3.4%"}
{"compound": "CCN(CC)CC(=O)N1CCCC(N2CCN(c3cccc(C(F)(F)F)c3)CC2)C1", "note": "(stereo not drawn)", "inhibition": "inconclusive: -2.6%"}
{"compound": "COc1ccc(-c2cc(C(=O)Nc3cc(Br)ccc3O)no2)cc1", "inhibition": "inactive: 1.6%"}
{"compound": "Cc1cc(N2C(=O)c3ccc(C(=O)NCc4ccccc4)cc3C2=O)no1", "inhibition": "inconclusive: -4.7%"}
{"compound": "CCOc1ccc(C2C(C#N)=C(N)SC(N)=C2C#N)c(OCC)c1", "inhibition": "active: 44.2%"}
{"compound": "CC1CCN(C(=O)CSc2nnc(-c3cc4ccccc4cc3O)n2Cc2ccco2)CC1", "inhibition": "inconclusive: 22.9%"}
{"compound": "N#C/C(=C\\Nc1ccc(Cl)cn1)S(=O)(=O)c1ccccc1", "inhibition": "inconclusive: -32.3%"}
{"compound": "COc1ccccc1NS(=O)(=O)c1ccc(C(=O)NCCCN2CCOCC2)cc1", "inhibition": "inconclusive: 1.7%"}
{"compound": "O=C(Nc1ccc2c(c1)OCCO2)c1cccc(S(=O)(=O)N2CCOCC2)c1", "inhibition": "inactive: 0.6%"}
{"compound": "O=C(OC1CCCCC1=O)c1ccc(F)c(S(=O)(=O)N2CCOCC2)c1", "note": "(stereo not drawn)", "inhibition": "inconclusive: 22.1%"}
{"compound": "COc1cc(/C=C/C(=O)CC(=O)/C=C/c2ccc(O)c(OC)c2)ccc1O", "inhibition": "active: 30.8%"}
{"compound": "O=C1C(SCCO)=C(SCCO)C(=O)c2ccccc21", "inhibition": "inactive: -0.3%"}
{"compound": "CC[n+]1c(/C=C/C=C/N(C(C)=O)c2ccccc2)sc2ccccc21", "inhibition": "inconclusive: 52.8%"}
{"compound": "Cc1onc(-c2ccccc2)c1C(=O)OCC(=O)N(C)c1c(N)n(Cc2ccccc2)c(=O)[nH]c1=O", "inhibition": "inconclusive: 2.6%"}
{"compound": "O=[N+]([O-])c1ccc(CN2CCCCCC2)cc1", "inhibition": "inconclusive: -1.7%"}
{"compound": "CSc1ccccc1-n1nnnc1SCc1ccccc1", "inhibition": "inconclusive: -4.6%"}
{"compound": "Cc1cccc2cc(C#N)c(N3CCN(C)CC3)nc12", "inhibition": "inactive: -0.1%"}
